{
  "source": "the supplement of paper PMC8728848",
  "binders": {"B1": {"name": "Epa2 (Candida glabrata) (protein)", "chain": "MGSSHHHHHHSSGLVPRGSHMASSKDPTSFPMGCSPQVLKTQPGLAVKLYSYGHPVPGCAYNTYQYPDFPRSGYKKERKLADITGVNGRIDIDLKPNDPCRVLSGNLPSNYNYQNTLTYTNFTMILYGYFQPKVTGYHTFNLEADDLLFMNLGAGNAFDCCRAESTLDNFGNYQSYSIWGTDKATADLTVFLVSGIYYPIRLFYVNRDNNAVLDFSFSTEFNKEIIHDFTSYFFSASDEEQCPGNI"}},
  "assay_in_all_cases": "glycan array binding signal (z-score within array); higher = stronger binding",
  "conditions_in_all_cases": "glycan notation: IUPAC condensed, linker removed",
  "key": {"[1]": {"target": "Gal(a1-3)Gal(b1-4)GlcNAc", "in_short": "(§1)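 From the Consortium for Functional Glycomics database, 3228 arrays were curated, keeping only those whose protein sequence was available. Binding is given as a within-array Z-score averaged across arrays sharing a protein sequence and across linkers. Negative Z-scores can be read as non-binding.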"}, "[2]": {"target": "Gal(a1-3)Gal(b1-4)GlcNAc(b1-2)Man", "in_short": "as §1"}, "[3]": {"target": "Gal(a1-3)Gal(b1-4)GlcNAc(b1-2)Man(a1-3)[Gal(a1-3)Gal(b1-4)GlcNAc(b1-2)Man(a1-6)]Man(b1-4)GlcNAc(b1-4)GlcNAc", "in_short": "as §1"}, "[4]": {"target": "Gal(a1-3)Gal(b1-4)GlcNAc(b1-3)GalNAc", "in_short": "as §1"}, "[5]": {"target": "Gal(a1-3)Gal(b1-4)GlcNAc(b1-6)GalNAc", "in_short": "as §1"}, "[6]": {"target": "Gal(a1-3)Gal(b1-4)[Fuc(a1-3)]GlcNAc", "in_short": "as §1"}, "[7]": {"target": "Gal(a1-3)Gal(b1-4)[Fuc(a1-3)]GlcNAc(b1-2)Man(a1-3)[Gal(a1-3)Gal(b1-4)[Fuc(a1-3)]GlcNAc(b1-2)Man(a1-6)]Man(b1-4)GlcNAc(b1-4)GlcNAc", "in_short": "as §1"}, "[8]": {"target": "Gal(a1-3)GalNAc", "in_short": "as §1"}, "[9]": {"target": "Gal(a1-3)[Gal(a1-4)]Gal(b1-4)GlcNAc", "in_short": "as §1"}, "[10]": {"target": "Gal(a1-4)Gal(b1-3)GlcNAc(b1-2)Man(a1-3)[Gal(a1-4)Gal(b1-3)GlcNAc(b1-2)Man(a1-6)]Man(b1-4)GlcNAc(b1-4)GlcNAc", "in_short": "as §1"}, "[11]": {"target": "Gal(a1-4)Gal(b1-4)Glc", "in_short": "as §1"}, "[12]": {"target": "Gal(a1-4)Gal(b1-4)GlcNAc", "in_short": "as §1"}, "[13]": {"target": "Gal(a1-4)Gal(b1-4)GlcNAc(b1-2)Man(a1-3)[Gal(a1-4)Gal(b1-4)GlcNAc(b1-2)Man(a1-6)]Man(b1-4)GlcNAc(b1-4)GlcNAc", "in_short": "as §1"}, "[14]": {"target": "Gal(a1-4)Gal(b1-4)GlcNAc(b1-3)Gal(b1-4)Glc", "in_short": "as §1"}, "[15]": {"target": "Gal(a1-4)GlcNAc", "in_short": "as §1"}, "[16]": {"target": "Gal(a1-6)Glc", "in_short": "as §1"}, "[17]": {"target": "Gal(b1-2)Gal", "in_short": "as §1"}, "[18]": {"target": "Gal(b1-3)Gal", "in_short": "as §1"}, "[19]": {"target": "Gal(b1-3)Gal(b1-4)GlcNAc", "in_short": "as §1"}, "[20]": {"target": "Gal(b1-3)GalNAc", "in_short": "as §1"}, "[21]": {"target": "Gal(b1-3)GalNAc(a1-3)[Fuc(a1-2)]Gal(b1-4)Glc", "in_short": "as §1"}, "[22]": {"target": "Gal(b1-3)GalNAc(a1-3)[Fuc(a1-2)]Gal(b1-4)GlcNAc", "in_short": "as §1"}, "[23]": {"target": "Gal(b1-3)GalNAc(b1-3)Gal", "in_short": "as §1"}, "[24]": {"target": "Gal(b1-3)GalNAc(b1-3)Gal(a1-4)Gal(b1-4)Glc", "in_short": "as §1"}, "[25]": {"target": "Gal(b1-3)GalNAc(b1-4)Gal(b1-4)Glc", "in_short": "as §1"}, "[26]": {"target": "Gal(b1-3)GalNAc(b1-4)[Neu5Ac(a2-3)]Gal(b1-4)Glc", "in_short": "as §1"}, "[27]": {"target": "Gal(b1-3)GlcNAc", "in_short": "as §1"}, "[28]": {"target": "Gal(b1-3)GlcNAc(a1-3)Gal(b1-4)GlcNAc", "in_short": "as §1"}, "[29]": {"target": "Gal(b1-3)GlcNAc(a1-6)Gal(b1-4)GlcNAc", "in_short": "as §1"}, "[30]": {"target": "Gal(b1-3)GlcNAc(b1-2)Man", "in_short": "as §1"}, "[31]": {"target": "Gal(b1-3)GlcNAc(b1-2)Man(a1-3)[Gal(b1-3)GlcNAc(b1-2)Man(a1-6)]Man(b1-4)GlcNAc(b1-4)GlcNAc", "in_short": "as §1"}, "[32]": {"target": "Gal(b1-3)GlcNAc(b1-2)Man(a1-3)[Gal(b1-3)GlcNAc(b1-2)Man(a1-6)]Man(b1-4)GlcNAc(b1-4)[Fuc(a1-6)]GlcNAc", "in_short": "as §1"}, "[33]": {"target": "Gal(b1-3)GlcNAc(b1-2)Man(a1-3)[GlcNAc(b1-4)][Gal(b1-3)GlcNAc(b1-2)Man(a1-6)]Man(b1-4)GlcNAc(b1-4)GlcNAc", "in_short": "as §1"}, "[34]": {"target": "Gal(b1-3)GlcNAc(b1-2)[Gal(b1-3)GlcNAc(b1-6)]Man(a1-6)[Gal(b1-3)GlcNAc(b1-2)Man(a1-3)]Man(b1-4)GlcNAc(b1-4)GlcNAc", "in_short": "as §1"}, "[35]": {"target": "Gal(b1-3)GlcNAc(b1-3)Gal(b1-3)GlcNAc", "in_short": "as §1"}, "[36]": {"target": "Gal(b1-3)GlcNAc(b1-3)Gal(b1-4)Glc", "in_short": "as §1"}, "[37]": {"target": "Gal(b1-3)GlcNAc(b1-3)Gal(b1-4)GlcNAc", "in_short": "as §1"}},
  "note": "Some of the results follow.",
  "data": [
    {"binder": "B1", "values": [
      {"measurement": "glycan array binding signal (z-score)", "setting": "[1]", "value": 0.099},
      {"measurement": "glycan array binding signal (z-score)", "setting": "[2]", "value": -1.15},
      {"measurement": "glycan array binding signal (z-score)", "setting": "[3]", "value": 0.003},
      {"measurement": "glycan array binding signal (z-score)", "setting": "[4]", "value": 0.279},
      {"measurement": "glycan array binding signal (z-score)", "setting": "[5]", "value": -0.743},
      {"measurement": "glycan array binding signal (z-score)", "setting": "[6]", "value": -0.595},
      {"measurement": "glycan array binding signal (z-score)", "setting": "[7]", "value": 0.447},
      {"measurement": "glycan array binding signal (z-score)", "setting": "[8]", "value": -0.37},
      {"measurement": "glycan array binding signal (z-score)", "setting": "[9]", "value": -0.11},
      {"measurement": "glycan array binding signal (z-score)", "setting": "[10]", "value": 0.032},
      {"measurement": "glycan array binding signal (z-score)", "setting": "[11]", "value": 1},
      {"measurement": "glycan array binding signal (z-score)", "setting": "[12]", "value": 0.406},
      {"measurement": "glycan array binding signal (z-score)", "setting": "[13]", "value": 0.034},
      {"measurement": "glycan array binding signal (z-score)", "setting": "[14]", "value": 0.184},
      {"measurement": "glycan array binding signal (z-score)", "setting": "[15]", "value": 2.5},
      {"measurement": "glycan array binding signal (z-score)", "setting": "[16]", "value": 0.288},
      {"measurement": "glycan array binding signal (z-score)", "setting": "[17]", "value": -1.01},
      {"measurement": "glycan array binding signal (z-score)", "setting": "[18]", "value": -0.951},
      {"measurement": "glycan array binding signal (z-score)", "setting": "[19]", "value": -0.446},
      {"measurement": "glycan array binding signal (z-score)", "setting": "[20]", "value": -0.051},
      {"measurement": "glycan array binding signal (z-score)", "setting": "[21]", "value": 0.291},
      {"measurement": "glycan array binding signal (z-score)", "setting": "[22]", "value": 0.314},
      {"measurement": "glycan array binding signal (z-score)", "setting": "[23]", "value": 0.505},
      {"measurement": "glycan array binding signal (z-score)", "setting": "[24]", "value": -0.078},
      {"measurement": "glycan array binding signal (z-score)", "setting": "[25]", "value": 1.09},
      {"measurement": "glycan array binding signal (z-score)", "setting": "[26]", "value": 0.497},
      {"measurement": "glycan array binding signal (z-score)", "setting": "[27]", "value": -0.783},
      {"measurement": "glycan array binding signal (z-score)", "setting": "[28]", "value": -0.874},
      {"measurement": "glycan array binding signal (z-score)", "setting": "[29]", "value": 0.297},
      {"measurement": "glycan array binding signal (z-score)", "setting": "[30]", "value": -0.068},
      {"measurement": "glycan array binding signal (z-score)", "setting": "[31]", "value": 0.254},
      {"measurement": "glycan array binding signal (z-score)", "setting": "[32]", "value": -0.373},
      {"measurement": "glycan array binding signal (z-score)", "setting": "[33]", "value": -0.141},
      {"measurement": "glycan array binding signal (z-score)", "setting": "[34]", "value": -0.157},
      {"measurement": "glycan array binding signal (z-score)", "setting": "[35]", "value": -0.374},
      {"measurement": "glycan array binding signal (z-score)", "setting": "[36]", "value": -0.223},
      {"measurement": "glycan array binding signal (z-score)", "setting": "[37]", "value": -1.08}
    ]}
  ]
}
